Reference: US20180119166A1
These are yes or no findings as the source states them, for the method shown. In cells and extracts the contact can be indirect. Some entries that bind do so weakly or less than the wild type. Where a sequence is shown, tags or fusion partners need not be part of it.

T1: 6x-histidine-fused LOS4 (LOS4-His) (Arabidopsis) (UniProt Q93ZG7)
T1 sequence: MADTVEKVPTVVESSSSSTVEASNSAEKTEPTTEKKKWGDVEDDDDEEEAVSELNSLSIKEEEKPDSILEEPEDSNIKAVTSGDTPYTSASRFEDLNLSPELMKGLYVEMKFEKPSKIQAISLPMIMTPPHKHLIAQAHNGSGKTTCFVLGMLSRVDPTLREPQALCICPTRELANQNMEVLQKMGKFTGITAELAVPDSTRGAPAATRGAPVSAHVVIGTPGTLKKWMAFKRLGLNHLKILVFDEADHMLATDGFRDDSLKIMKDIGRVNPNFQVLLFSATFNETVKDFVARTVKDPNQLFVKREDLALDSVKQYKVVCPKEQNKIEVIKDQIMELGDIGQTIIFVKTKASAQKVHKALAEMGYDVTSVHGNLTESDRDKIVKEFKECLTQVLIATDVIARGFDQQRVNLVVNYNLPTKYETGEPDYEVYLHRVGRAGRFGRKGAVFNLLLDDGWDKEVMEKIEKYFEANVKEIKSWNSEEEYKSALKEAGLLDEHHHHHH

T2: Myc-fused LOS4 (LOS4-Myc) (Arabidopsis) (UniProt Q93ZG7)
T2 sequence (looked up): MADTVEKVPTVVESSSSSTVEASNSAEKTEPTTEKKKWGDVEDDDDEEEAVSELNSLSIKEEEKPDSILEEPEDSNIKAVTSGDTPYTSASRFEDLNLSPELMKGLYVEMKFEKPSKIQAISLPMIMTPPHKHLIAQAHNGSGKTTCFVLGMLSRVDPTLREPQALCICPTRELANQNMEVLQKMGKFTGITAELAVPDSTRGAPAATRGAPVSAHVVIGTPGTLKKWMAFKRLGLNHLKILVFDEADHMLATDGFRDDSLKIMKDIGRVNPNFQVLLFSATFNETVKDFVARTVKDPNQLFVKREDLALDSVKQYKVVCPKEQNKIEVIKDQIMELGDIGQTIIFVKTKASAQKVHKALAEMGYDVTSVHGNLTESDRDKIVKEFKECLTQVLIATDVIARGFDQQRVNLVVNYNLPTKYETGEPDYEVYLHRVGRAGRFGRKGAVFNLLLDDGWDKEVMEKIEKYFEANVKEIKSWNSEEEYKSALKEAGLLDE


Columns and labels:
[1] = biological target: T1, 6x-histidine-fused LOS4 (LOS4-His) (Arabidopsis); test: in vitro pull-down (FIG. 3E), told again in the discussion
[2] = biological target: T1, 6x-histidine-fused LOS4 (LOS4-His) (Arabidopsis); test: in vitro pull-down on amylose resin, Coomassie blue staining
[3] = biological target: T1, 6x-histidine-fused LOS4 (LOS4-His) (Arabidopsis); test: in vitro pull-down on nickel resin or amylose resin, Coomassie blue staining
[4] = biological target: T2, Myc-fused LOS4 (LOS4-Myc) (Arabidopsis); test: co-immunoprecipitation, anti-Flag IP, anti-Myc detection
[5] = biological target: T2, Myc-fused LOS4 (LOS4-Myc) (Arabidopsis); test: co-immunoprecipitation from N. benthamiana leaf extracts, anti-Flag IP, anti-Myc western blot

| binding [1] | binding [2] | binding [3] | binding [4] | binding [5] | Binder |
| --- | --- | --- | --- | --- | --- |
| binds | binds | binds | – | – | maltose-binding protein (MBP)-fused Gle1 (MBP-Gle1) (protein, not shown: large carriers) MGIVLEPPCPKSVDGISIDPEPNWNFESLVAEIASVEKKLNGFSMYPQPITNTTLRMGRRGGGFVMHVSEDEMESDEGEESDDEEEEEDHSQICTAGKRFACDELYLSDESDEEFDHEPEYMMNKLGLAESALYEVINDHQTEIKDDIRNQVSVVETEIMNEIETSLSAIARVEKYSETRKEVERKLDLQYQRKVAEALDTHLTAVQREHKIKSQIEERKIRSEEAQEEARRKERAHQEEKIRQEKARAEAQMLAKIRAEEEKKEVERKAAREVAEKEVADRKAAEQKLAEQKAVIESVTGSSATSNAQAGGNSIRAAESALILENHRLKKLEELETTNQSLKSRSNENFSSFEKHIGRVIRQISGTKDSVSGKINDIVKIFKDPRCPVSISIAAFAKKMVTTKEKPNPFACSYVIVYINSQFPQVMDILLAEFHKACIYTVPKHIVNSQSAWDSDAYERLDSIMRLYGALVQTDIRVGNATNVHGIEHGWAWLARFLNKIPANRATATALNSFLQTAGFGLHQRYKSQFLKVVNVVREHFLQKLRAKKDTSDLLVIIAEITAYLDDRMYLKEPEGRAMKTTSTLSSELTAELNQPNYNQNYQRNDYRNYY |
| – | – | – | binds | binds | Flag-fused Gle1 (Flag-Gle1) (protein, not shown: small tags and cut ends) MGIVLEPPCPKSVDGISIDPEPNWNFESLVAEIASVEKKLNGFSMYPQPITNTTLRMGRRGGGFVMHVSEDEMESDEGEESDDEEEEEDHSQICTAGKRFACDELYLSDESDEEFDHEPEYMMNKLGLAESALYEVINDHQTEIKDDIRNQVSVVETEIMNEIETSLSAIARVEKYSETRKEVERKLDLQYQRKVAEALDTHLTAVQREHKIKSQIEERKIRSEEAQEEARRKERAHQEEKIRQEKARAEAQMLAKIRAEEEKKEVERKAAREVAEKEVADRKAAEQKLAEQKAVIESVTGSSATSNAQAGGNSIRAAESALILENHRLKKLEELETTNQSLKSRSNENFSSFEKHIGRVIRQISGTKDSVSGKINDIVKIFKDPRCPVSISIAAFAKKMVTTKEKPNPFACSYVIVYINSQFPQVMDILLAEFHKACIYTVPKHIVNSQSAWDSDAYERLDSIMRLYGALVQTDIRVGNATNVHGIEHGWAWLARFLNKIPANRATATALNSFLQTAGFGLHQRYKSQFLKVVNVVREHFLQKLRAKKDTSDLLVIIAEITAYLDDRMYLKEPEGRAMKTTSTLSSELTAELNQPNYNQNYQRNDYRNYY |
